No constants are given. Whether binding was seen depends on the method and setting. Some binding calls cover weakened binding; strength is not graded here.
B1: TNF-JK1 (antibody, V domains shown)
VH: EVQLVESGGGLVQPGGSLRLSCATSGFTFNNYWMSWVRQAPGKGLEWVANINHDESEKYYVDSAKGRFTISRDNAEKSLFLQMNSLRAEDTAVYYCARIIRGRVGFDYYNYAMDVWGQGTLVTVSS
VL: DIRLTQSPSPLSASVGDRVTITCRASQSIGNYLNWYQHKPGKAPKLLIYAASSLQSGVPSRFSGTGSGTDFTLTISSLQPEDFATYYCQESYSLIFAGGTKVEIK
B2: AE11-1 (antibody, V domains shown)
VH: EVQLVQSGAEVKKPGASVKVSCKASGYTFTSYDVNWVRQATGQGLEWMGWMNPNSGNTGYAQKFQGRVTITADESTSTAYMELSSLRSEDTAVYYCAIFDSDYMDVWGKGTLVTVSS
VL: SYELTQPPSVSLSPGQTARITCSGDALPKQYAYWYQQKPGQAPVLVIYKDTERPSGIPERFSGSSSGTTVTLTISGAQAEDEADYYCQSADSSGTSWVFGGGTKLTVL
B3: AE11-5 (antibody, V domains shown)
VH: EVQLVQSGAEVKKPGSSAKVSCKASGGTFSSYAISWVRQAPGQGLEWMGGIIPILGTANYAQKFLGRVTITADESTSTVYMELSSLRSEDTAVYYCARGLYYDPTRADYWGQGTLVTVSS
VL: DIVMTQSPDFHSVTPKEKVTITCRASQSIGSSLHWYQQKPDQSPKLLIRHASQSISGVPSRFSGSGSGTDFTLTIHSLEAEDAATYYCHQSSSSPPPTFGQGTQVEIK
B4: AE11-7 (antibody, V domains shown)
VH: EVQLVQSGAEVKKPGASVKVSCKTSGYSLTQYPIHWVRQAPGQRPEWMGWISPGNGNTKLSPKFQGRVTLSRDASAGTVFMDLSGLTSDDTAVYFCTSVDLGDHWGQGTLVTVSS
VL: DIVMTQSPEFQSVTPKEKVTITCRASQSIGSSLHWYQQKPDQSPKLLINYASQSFSGVPSRFSGGGSGTDFTLTINSLEAEDAATYYCHQSSNLPITFGQGTRLEIK

By UniProt entry, the sequences of proteins in these tests, tags left out. Where a name states a change or a piece, a line headed by the entry shows the natural chain unless it says otherwise.
UniProt P01375: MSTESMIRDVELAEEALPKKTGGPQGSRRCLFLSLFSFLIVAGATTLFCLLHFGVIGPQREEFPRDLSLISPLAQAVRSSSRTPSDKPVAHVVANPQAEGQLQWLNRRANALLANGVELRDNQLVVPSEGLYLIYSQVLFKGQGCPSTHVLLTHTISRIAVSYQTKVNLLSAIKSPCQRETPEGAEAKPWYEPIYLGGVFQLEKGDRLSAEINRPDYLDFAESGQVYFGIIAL

Molecular target: human TNF-α (human) (UniProt P01375)
Assay: in vitro display selection on recombinant human TNF

binding, binds:
B1
B2
B3
B4
